Residue numbers refer to the chain shown, from its start. In names and notes the source's numbering stands. No constants are given. Whether binding was seen depends on the method and setting. In cells and extracts the contact can be indirect. Some results given as binding are weak or reduced against the parent protein; the word gives no strength. Sequences can lack the tags named with a protein.

Chains of the proteins cited; added tags and fusions are not shown.
UniProt Q676U5: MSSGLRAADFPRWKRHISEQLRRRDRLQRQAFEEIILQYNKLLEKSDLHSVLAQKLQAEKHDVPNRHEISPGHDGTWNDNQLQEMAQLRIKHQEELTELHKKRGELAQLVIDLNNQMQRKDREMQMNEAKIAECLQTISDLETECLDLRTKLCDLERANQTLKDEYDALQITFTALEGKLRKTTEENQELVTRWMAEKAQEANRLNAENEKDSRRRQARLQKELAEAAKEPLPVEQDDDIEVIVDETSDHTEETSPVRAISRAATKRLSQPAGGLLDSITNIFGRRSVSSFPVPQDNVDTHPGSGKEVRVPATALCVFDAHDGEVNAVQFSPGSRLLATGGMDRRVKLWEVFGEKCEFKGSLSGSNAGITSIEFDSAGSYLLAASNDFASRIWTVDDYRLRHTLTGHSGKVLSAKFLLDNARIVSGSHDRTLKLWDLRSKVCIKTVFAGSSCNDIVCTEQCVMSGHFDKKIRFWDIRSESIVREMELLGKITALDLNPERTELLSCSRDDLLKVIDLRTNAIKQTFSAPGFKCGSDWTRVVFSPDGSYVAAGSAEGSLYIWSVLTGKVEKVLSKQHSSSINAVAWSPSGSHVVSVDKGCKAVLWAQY

This is an account of results in publication PMC5891424.

The target in experiment [1] is T1, myc-tagged SNX18 WT (sorting nexin 18) (human) (UniProt Q96RF0).
T1 sequence: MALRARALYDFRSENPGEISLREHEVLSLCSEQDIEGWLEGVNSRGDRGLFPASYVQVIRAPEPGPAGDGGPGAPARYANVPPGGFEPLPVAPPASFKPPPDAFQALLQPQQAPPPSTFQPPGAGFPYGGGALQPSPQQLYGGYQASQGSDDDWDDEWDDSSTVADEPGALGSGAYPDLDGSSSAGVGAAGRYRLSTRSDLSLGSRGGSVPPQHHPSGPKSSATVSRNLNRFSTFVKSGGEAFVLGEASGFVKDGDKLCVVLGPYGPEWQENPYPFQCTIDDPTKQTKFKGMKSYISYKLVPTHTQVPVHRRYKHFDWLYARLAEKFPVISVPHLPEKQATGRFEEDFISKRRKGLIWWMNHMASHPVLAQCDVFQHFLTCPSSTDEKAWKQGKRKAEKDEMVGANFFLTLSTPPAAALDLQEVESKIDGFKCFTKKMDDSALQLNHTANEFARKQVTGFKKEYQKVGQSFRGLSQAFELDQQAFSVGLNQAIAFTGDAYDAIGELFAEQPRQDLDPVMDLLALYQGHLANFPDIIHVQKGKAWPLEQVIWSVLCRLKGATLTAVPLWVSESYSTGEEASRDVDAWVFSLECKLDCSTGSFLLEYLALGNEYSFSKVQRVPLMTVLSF
The experiment can be described thus: co-IP; HEK293A cells transfected with myc control, myc-SNX18 WT or W38K; lysates incubated with magnetic anti-myc microbeads (μMACS myc-isolation kit); myc-IP blotted for Dynamin-2, ATG16L1 and myc.

Experiment [2] concerns the target T2, myc-tagged SNX18 W38K (Dynamin-2 binding-deficient mutant) (human) (UniProt Q96RF0).
T2 sequence: T1 sequence with W38K
Described as above.

The next experiment deals with flag-ATG16L1 (UniProt Q676U5). The experiment can be described thus: co-IP; HEK293A cells cotransfected with myc control, myc-SNX18 WT or W38K together with flag-ATG16L1; lysates incubated with magnetic anti-flag microbeads; flag-IP blotted for flag and myc.

Regarding “ATG16L1 (endogenous) (from UniProt Q676U5 1-607)”, the binding result in experiment [1] and in experiment [2] was “binds” throughout.

B1: myc-tagged SNX18 WT (sorting nexin 18) (protein, UniProt Q96RF0 1-628)
chain: T1 sequence
On to B1, for which the binding result with flag-ATG16L1 was “binds”.

B2: myc-tagged SNX18 W38K (Dynamin-2 binding-deficient mutant) (protein, UniProt Q96RF0 1-628)
chain: T1 sequence with W38K
For B2, the binding entry in the experiment with flag-ATG16L1 is listed as “binds”.
